# PubChem BioAssay AID504774 – Drosophila RNAi Screening Center – 2011
# Purpose: 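Fly genes whose loss alters survival after alkylation damage to DNA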 (primary screen)
# Cells: Drosophila Kc167 cells
# Knock-down reagent: long dsRNA against Drosophila genes, about 0.25 µg dsRNA per well
# Timing: about 6 days: 3 days knock-down, then 3 days with or without MMS
# Challenge: methyl methanesulphonate 0.004% (w/v) for 3 days after knock-down
# Measured: 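Viability in wells given MMS, read as ATP luminescence, normalised by quantiles plate by plate and averaged across replicates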
# Direction: mean viability with MMS and viability with MMS: higher = more surviving cells after MMS
# The screen tested about 23,000 reagents; this is an unselected part of those with a known target gene and a result. 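Values are quantile-normalised luminescence on an arbitrary scale; higher means more cells surviving MMS.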 Names joined by + are all predicted targets of the reagent.
target,amplicon,mean viability with MMS,"viability with MMS, replicate 1","viability with MMS, replicate 2"
Trax,DRSC15709,3.35e6,3.81e6,3.74e6
CG33309,DRSC01421,3.53e6,4.01e6,4.00e6
Obp8a,DRSC17868,3.52e6,3.99e6,3.97e6
her,DRSC03543,3.58e6,3.82e6,4.33e6
Coq8,DRSC19900,3.42e6,3.92e6,3.85e6
CG14712,DRSC14935,3.35e6,3.74e6,3.80e6
CG10177,DRSC14201,3.42e6,3.88e6,3.84e6
Fgop2,DRSC02016,3.50e6,4.04e6,3.88e6
Vha14-2,DRSC12145,3.79e6,4.22e6,4.30e6
CG12502,DRSC08281,3.45e6,3.86e6,3.97e6
CG12502,DRSC23247,3.16e6,3.81e6,3.21e6
Gpo1,DRSC07128,3.70e6,4.14e6,4.24e6
IleRS,DRSC11667,3.50e6,3.96e6,3.96e6
Cluap1,DRSC20637,3.56e6,3.96e6,4.11e6
CG14200,DRSC19555,2.88e6,3.66e6,3.65e6
CG14200,DRSC22979,3.07e6,3.26e6,3.57e6
CG10914,DRSC06010,3.60e6,4.02e6,4.13e6
wrm1,DRSC11007,3.55e6,4.07e6,3.99e6
P58IPK,DRSC16404,3.51e6,3.94e6,4.03e6
CG5770,DRSC06954,3.57e6,4.07e6,4.03e6
Best1,DRSC16909,3.54e6,4.18e6,4.11e6
CG30416,DRSC04565,3.44e6,3.86e6,3.91e6
AMPKalpha,DRSC18714,3.30e6,3.73e6,3.80e6
RpS28a,DRSC15064,3.51e6,3.92e6,4.01e6
Sugb,DRSC10815,3.60e6,4.12e6,4.04e6
Agpat4,DRSC10446,3.63e6,4.07e6,4.15e6
CG7968,DRSC01903,3.58e6,4.04e6,4.07e6
exu,DRSC07615,3.50e6,3.89e6,4.03e6
Adgf-D,DRSC16521,3.54e6,4.12e6,3.92e6
Fer1,DRSC12507,3.59e6,3.97e6,4.18e6
Fer1,DRSC12555,3.64e6,4.07e6,4.17e6
CG17027,DRSC10238,3.69e6,4.14e6,4.18e6
CG7523,DRSC16254,3.63e6,4.11e6,4.09e6
Taf9,DRSC20326,3.49e6,4.02e6,3.89e6
CG13737,DRSC10064,3.38e6,3.73e6,3.87e6
CG15602,DRSC19671,3.51e6,3.98e6,3.98e6
CG14187,DRSC10186,3.48e6,3.93e6,3.93e6
su(w[a]),DRSC18840,3.03e6,3.67e6,3.69e6
CG15126,DRSC06548,3.57e6,4.05e6,4.03e6
CG4896,DRSC00671,3.66e6,4.10e6,4.24e6
Dhc1,DRSC16503,3.75e6,4.19e6,4.13e6
CG31882,DRSC01084,3.62e6,4.17e6,4.02e6
CG34223,DRSC05268,3.64e6,4.07e6,4.10e6
Vha100-2,DRSC14152,3.61e6,4.10e6,4.06e6
Cyp301a1,DRSC07365,3.59e6,4.21e6,4.11e6
CG5440,DRSC00685,3.53e6,4.04e6,3.97e6
lncRNA:CR32368,DRSC08899,3.44e6,3.91e6,3.89e6
Chmp1,DRSC10401,3.66e6,4.19e6,4.07e6
tub,DRSC12389,3.62e6,4.04e6,4.16e6
tub,DRSC22800,3.36e6,3.87e6,3.88e6
CG5002,DRSC06911,3.51e6,3.93e6,4.03e6
miple2,DRSC08723,3.60e6,4.11e6,4.03e6
Syx7,DRSC11763,3.60e6,3.93e6,4.23e6
sofe,DRSC19751,3.51e6,3.83e6,4.12e6
CG8461,DRSC16424,3.45e6,3.87e6,3.92e6
drosha,DRSC07607,3.50e6,4.06e6,3.85e6
Or69a,DRSC11243,3.56e6,4.06e6,4.01e6
Cad96Cb,DRSC14243,3.36e6,3.77e6,3.77e6
Cad96Cb,DRSC14665,3.39e6,3.82e6,3.79e6
CG18789,DRSC02696,3.79e6,4.20e6,4.23e6
tomboy40,DRSC04918,3.56e6,3.98e6,4.09e6
CG10657,DRSC09768,3.55e6,3.99e6,4.07e6
Tet,DRSC08550,3.25e6,3.72e6,3.79e6
Rbbp5 + CG6434 (retired record),DRSC10635,3.66e6,4.19e6,4.07e6
wtrw,DRSC14241,3.46e6,3.97e6,3.86e6
wtrw,DRSC15278,3.64e6,4.02e6,3.99e6
ec,DRSC17285,3.40e6,3.89e6,3.83e6
ec,DRSC17286,3.42e6,3.81e6,3.96e6
ec,DRSC18658,3.95e6,4.70e6,4.41e6

Just “viability with MMS, replicate 2”, for 11 of the entries above:
drosha [DRSC07607]: 3.85e6
Or69a [DRSC11243]: 4.01e6
Cad96Cb [DRSC14243]: 3.77e6
Cad96Cb [DRSC14665]: 3.79e6
CG18789 [DRSC02696]: 4.23e6
tomboy40 [DRSC04918]: 4.09e6
CG10657 [DRSC09768]: 4.07e6
Tet [DRSC08550]: 3.79e6
Rbbp5 + CG6434 (retired record) [DRSC10635]: 4.07e6
wtrw [DRSC14241]: 3.86e6
wtrw [DRSC15278]: 3.99e6
